PubChem BioAssay AID1224830, NIAID – 2016

- Purpose: 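Regulators of TLR4 signalling towards TNF-alpha in macrophage-like cells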 (primary screen)
- Cells: human THP-1 monocytic leukaemia cells, TNF dual-luciferase reporter clone, PMA-differentiated to macrophage-like cells
- Knock-down reagent: siRNA pool against human genes, 50 nM
- Duration: LPS for 4 h, given about 3 days after siRNA transfection
- Conditions: bacterial LPS (TLR4 ligand), 10 ng/ml
- Measurement: 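TNF firefly reporter luminescence divided by renilla, normalised to the plate median, then turned into a robust z-score for each replicate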
- Reading the numbers: TNF reporter robust z-score: higher = stronger TNF reporter response to LPS
- Hit rule: 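Each well counts as active if its z-score is over 2.8 or under -1.5; controls are left without a call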
In all, the deposit lists about 18,000 reagents; this is a part drawn at random. About 2,900 of them (16%) were called active. 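Calls are made per well; low scores hint the gene aids the LPS response, high scores that it dampens it.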 Unmarked entries are inactive. Reagents against one gene are numbered here. Repeated entries: four replicate wells of each siRNA pool.

| gene | reagent no. | TNF reporter robust z-score |
| --- | --- | --- |
| HNRNPUL1 | 1 | 1.34 |
| HNRNPUL1 | 1 | 2.21 |
| HNRNPUL1 | 1 | -0.99 |
| HNRNPUL1 | 1 | -0.95 |
| SRSF7 | 1 | -0.11 |
| SRSF7 | 1 | 1.2 |
| SRSF7 | 1 | 0.53 |
| SRSF7 | 1 | 2.09 |
| ARHGEF7 | 1 | -0.21 |
| ARHGEF7 | 1 | 0.11 |
| ARHGEF7 | 1 | -0.44 |
| ARHGEF7 | 1 | -0.14 |
| TMEFF2 | 1 | -1.66 (active) |
| TMEFF2 | 1 | -0.78 |
| TMEFF2 | 1 | -1.16 |
| TMEFF2 | 1 | -1.39 |
| KIAA2012 | 1 | 0.19 |
| KIAA2012 | 1 | -0.71 |
| KIAA2012 | 1 | 0.32 |
| KIAA2012 | 1 | 0.45 |
| EFCAB7 | 1 | 1.29 |
| EFCAB7 | 1 | 1.5 |
| EFCAB7 | 1 | 0.34 |
| EFCAB7 | 1 | 0.13 |
| GORAB | 1 | 0.72 |
| GORAB | 1 | 1.34 |
| GORAB | 1 | 0.98 |
| GORAB | 1 | 0.99 |
| TARBP1 | 1 | -0.48 |
| TARBP1 | 1 | -0.01 |
| TARBP1 | 1 | -0.18 |
| TARBP1 | 1 | 0.7 |
| MRM2 | 1 | 1.63 |
| MRM2 | 1 | 2.22 |
| MRM2 | 1 | 1.25 |
| MRM2 | 1 | 1.98 |
| BRD3 | 1 | 2.07 |
| BRD3 | 1 | 0.91 |
| BRD3 | 1 | 2.88 (active) |
| BRD3 | 1 | 1.76 |
| HS3ST6 | 1 | -0.3 |
| HS3ST6 | 1 | -0.66 |
| HS3ST6 | 1 | -0.16 |
| ABCC11 | 1 | 0.89 |
| ABCC11 | 1 | -0.5 |
| ABCC11 | 1 | 0.79 |
| ABCC11 | 1 | 2.06 |
| GTF2H2 | 1 | -0.04 |
| GTF2H2 | 1 | 0.52 |
| GTF2H2 | 1 | 0.53 |
| GTF2H2 | 1 | 0.43 |
| ADAP2 | 1 | 1.04 |
| ADAP2 | 1 | 1.1 |
| ADAP2 | 1 | 0.46 |
| ADAP2 | 1 | 0.7 |
| RBM47 | 1 | -0.95 |
| RBM47 | 1 | 0.66 |
| RBM47 | 1 | 0.24 |
| RBM47 | 1 | -0.11 |
| CNTN4 | 1 | -1 |
| CNTN4 | 1 | -0.68 |
| CNTN4 | 1 | -0.87 |
| OR2G6 | 1 | 0.3 |
| OR2G6 | 1 | 0.96 |
| OR2G6 | 1 | -0.56 |
| OR2G6 | 1 | 0.8 |
| ZNF782 | 1 | -1.33 |
| ZNF782 | 1 | -0.83 |
| ZNF782 | 1 | -1.01 |
| ZNF782 | 1 | -0.96 |
| ARNT2 | 1 | -0.36 |
| ARNT2 | 1 | 0.12 |
| ARNT2 | 1 | -0.45 |
| ARNT2 | 1 | -0.02 |
| ULK4 | 1 | -1.17 |
| ULK4 | 1 | 0.03 |
| ULK4 | 1 | -1.01 |
| ULK4 | 1 | 0.92 |
| C6orf163 | 1 | -0.17 |
| C6orf163 | 1 | -0.15 |
| C6orf163 | 1 | 0.83 |
| C6orf163 | 1 | 1.46 |
| GAB2 | 1 | -1.41 |
| GAB2 | 1 | -0.64 |
| GAB2 | 1 | -1.02 |
| GAB2 | 1 | -1.38 |
| PAQR3 | 1 | 0.84 |
| PAQR3 | 1 | 1.93 |
| PAQR3 | 1 | 0.56 |
| PAQR3 | 1 | 1.9 |
| FBXL7 | 1 | 0.2 |
| FBXL7 | 1 | -1.25 |
| FBXL7 | 1 | -1.14 |
| FBXL7 | 1 | 0.26 |
| PAGE3 | 1 | -0.02 |
| PAGE3 | 1 | 0.55 |
| PAGE3 | 1 | -0.11 |
| PAGE3 | 1 | 1.46 |
| SPANXD | 1 | 0.19 |
| SPANXD | 1 | 0.79 |
| SPANXD | 1 | -1.05 |
| SPANXD | 1 | -0.78 |
| SPANXD | 2 | 0.29 |
| SPANXD | 2 | 0.7 |
| SPANXD | 2 | 0.52 |
| SPANXD | 2 | 1.09 |
| VIPR1 | 1 | -1.73 (active) |
| VIPR1 | 1 | -1.45 |
| VIPR1 | 1 | -0.84 |
| VIPR1 | 1 | -0.62 |
| RBM3 | 1 | -0.2 |
| RBM3 | 1 | -1.48 |
| RBM3 | 1 | -0.54 |
| RBM3 | 1 | 0.08 |
| HLA-DMB | 1 | 2.05 |
| HLA-DMB | 1 | 6.42 (active) |
| HLA-DMB | 1 | 1.1 |
| HLA-DMB | 1 | 2.1 |
| CRH | 1 | 0.44 |
| CRH | 1 | 1.5 |
| CRH | 1 | 0.96 |
| CRH | 1 | -0.85 |
| OGDH | 1 | 0.17 |
| OGDH | 1 | 0.42 |
| OGDH | 1 | 0.1 |
| OGDH | 1 | 0.72 |
| FAM161B | 1 | 0.58 |
| FAM161B | 1 | 0.38 |
| FAM161B | 1 | -0.45 |
| FAM161B | 1 | 0.02 |
| CCL25 | 1 | 22 (active) |
| CCL25 | 1 | 1.08 |
| CCL25 | 1 | 1.46 |
| CCL25 | 1 | 0.91 |
| ACTN3 | 1 | -0.4 |
| ACTN3 | 1 | -0.89 |
| ACTN3 | 1 | -0.79 |
| ACTN3 | 1 | -0.61 |
| FTMT | 1 | 1.39 |
| FTMT | 1 | 4.54 (active) |
| FTMT | 1 | 1.72 |
| FTMT | 1 | 3.85 (active) |

Records listed so far whose target name starts with K or k:
| gene | reagent no. | TNF reporter robust z-score |
| --- | --- | --- |
| KIAA2012 | 1 | 0.19 |
| KIAA2012 | 1 | -0.71 |
| KIAA2012 | 1 | 0.32 |
| KIAA2012 | 1 | 0.45 |
